Assay [1] addresses DSP1 (Dorsal Switch Protein 1) (Drosophila melanogaster (endogenous in w1118 embryos)). Put plainly: co-IP; extracts of 0-14 hour-old w1118 embryos (50 mM Tris pH 7.5, 150 mM NaCl, 1% NP40, 0.1% SDS), affinity-purified anti-DSP1 antibodies on protein A-agarose, overnight 4°C; rabbit serum as mock; western blot with rat anti-Corto. In general terms: In western blotting, separated proteins are transferred to a membrane and probed.

Assay [2] concerns the target MBP-DSP1 (full-length DSP1) (Drosophila melanogaster). Nature of the assay: far-Western, overlay or dot blot; MBP-DSP1 fusion proteins run on SDS-PAGE and transferred to a membrane, incubated with 35S-labeled in vitro translated Corto; phosphorimager; only the target purified.

No constants are given. Whether binding was seen depends on the method and setting. Binding calls can cover weak binding; strength is not graded here. For some assays here: Binding seen in cells or lysates may run through a third protein.

B1: Corto (protein, UniProt P41046 1-550)
chain: MTMAACYANYDMSSLSHGMSALSALQQQQQQQQQQHSQTQQQHHHQQQQQHMYHAAVAAHQQQLLQQQQQQQHHRHHHQPANTSSSSNSRHSHAAATQTQVAAAVANSRQQQQQQQQQQQQQQQQQTASSNSNAAPAPSPQKDYSIPLHVDCSVEYELPNQPKPPAGQRVEPLLMIHPCYFRKMESQRRSPFVNNMHATARAVSSSSLSSGAALGGGGSGAAVATAPSSSAARRGARAATSAQQQQQQQQRYQQQQQQLRQQHQQMSQMSQQAHYPQQQSSLVRQHQQQQQQQQQQQRASSNQSQRQSQSQSQSQSHAANSAAAAAAQASIAAAAAGQWDQLAALAARTALTPHHMLHPHSHYAAKGSGGGAGGGKRDAMISGSYGQTAVASGKLQQSQVQQQQPQQQQQHCLPPPPWDATSMLMDRSPMATVPSNYQAGPDTNPMRLYSATPTAGAASGGSASVGGGGAVSGAGATGAVNTATDKLSGKYRQYLRSQRMHPYAAAASLNLAAAAAAAGQTSFVPFSSAATAVAATPTFQHLPQISCYNV
Turning to B1, the binding result in assay [1] is recorded as “binds”.

B2: full-length radiolabeled Corto (protein, UniProt P41046 1-550)
chain: MTMAACYANYDMSSLSHGMSALSALQQQQQQQQQQHSQTQQQHHHQQQQQHMYHAAVAAHQQQLLQQQQQQQHHRHHHQPANTSSSSNSRHSHAAATQTQVAAAVANSRQQQQQQQQQQQQQQQQQTASSNSNAAPAPSPQKDYSIPLHVDCSVEYELPNQPKPPAGQRVEPLLMIHPCYFRKMESQRRSPFVNNMHATARAVSSSSLSSGAALGGGGSGAAVATAPSSSAARRGARAATSAQQQQQQQQRYQQQQQQLRQQHQQMSQMSQQAHYPQQQSSLVRQHQQQQQQQQQQQRASSNQSQRQSQSQSQSQSHAANSAAAAAAQASIAAAAAGQWDQLAALAARTALTPHHMLHPHSHYAAKGSGGGAGGGKRDAMISGSYGQTAVASGKLQQSQVQQQQPQQQQQHCLPPPPWDATSMLMDRSPMATVPSNYQAGPDTNPMRLYSATPTAGAASGGSASVGGGGAVSGAGATGAVNTATDKLSGKYRQYLRSQRMHPYAAAASLNLAAAAAAAGQTSFVPFSSAATAVAATPTFQHLPQISCYNV
modifications: 35S methionine (radiolabel)
For the molecule B2, in assay [2], the binding entry was “binds”.

(Values after PMC1459216.)
